Results on 1 molecule are retold here after paper PMC10140173.

Results are given in words; binding and its absence hold for the method and conditions named. In cells and extracts the contact can be indirect. Binding calls can cover weak binding; strength is not graded here.

The assay addresses casein kinase 1a (CK1a) (Neurospora crassa (endogenous in Neurospora)). The assay can be described thus: co-IP; immunoprecipitation with an antibody against CK1a from strain extracts, 25 °C; preimmune serum as control.

B1: small FRQ (s-FRQ), FREQUENCY protein isoform lacking the N-terminal 99 aa (protein, UniProt P19970 100-989)
chain: MEVDPPFYQKETDSSNEESRYPPGRNPVHPPGGVQLPGFRPVAAHSSAADDYRSVIDDLTVENKRLKEELKRYKQFGSDVMRKEKLFEIKVHGLPRRKKRELEATLRDFAASLGDSSESTSQRRKTGRHGTAVHSSGVSLSKHDSSSSSRSRPVDSAYNSMSTGRSSHAPHSSGPSLGRPSLTRAKSVGTQKVENYLRDTPDGLLPHHIVMTDKEKKKLVVRRLEQLFTGKISGRNMQRNQSMPSMDAPLAPEGTNMAPPRPPPEGLREACIQLQDGDNPRKNRSSKDNGSASNSGGDQTELGGTGTGSGDGSGSGGRTGNNTSPPGAIAPDQRPTRPRDLDPDRVQIPSENMDYIRHLGLVSPEFLQGSRTSYQDVAPDAEGWVYLNLLCNLAQLHMVNVTPSFIRQAVSEKSTKFQLSADGRKIRWRGGTDGTKFSSDSSEDKSQQSPMTEDTEDGSDKNGRRKKRKTQQASSEIGRFGPSRSPSDTFHYKPMFVHRNSSSIETSLEESMSQGSEDAVDESNMGNSKWDFSGSGTTQQRRKRRYDGAIVYYTGAPFCTDLSGDPGDMSPTAQMTAGREVEGSGSGDEVEHVLQRTLSGSSLPIRPLSDDRARVAEVLDFDPGNPPELVADDGSSPNDEDFVFPWCEDPAKVRIQPIAKEVMEPSGLGGVLPDDHFVMLVTTRRVVRPILQRQLSRSTTSEDTAEFIAERLAAIRTSSPLPPRSHRLTVAPLQVEYVSGQFRRLNPAPLPPPAIFYPPFSTDSSWDDGDDLASDDEEVEEVEEDSYSEGQISRRANPHFSDNNTYMRKDDLAFDTETDVRMDSDDNRLSDSGHNMRAMMPRAEAVDGDDSPLAAVTGKEVDMLHTGSSVATAGGAESGYSSSMEDVSSS
Regarding B1, the binding result is “binds”.
